# The campaign covered roughly 330,000 compounds. About 7,700 (2.3%) were called active. Inconclusive means that the source gave no clear call. Such entries were picked first, then a sample of the others. The call rests on the fitted dose curve; in most records, active means well fitted inhibition curve with a large enough effect; inconclusive means small, poorly fitted or top-dose-only effect, or effect the other way; inactive means flat fitted curve, though single readings scatter. A potency beside an inconclusive call is a rough fit, not a confirmed value.
# Assay: qHTS screen for small molecules that inhibit ELG1-dependent DNA repair in human embryonic kidney (HEK293T) cells expressing luciferase-tagged ELG1; further: nearly all actives have a fitted effect of over 55% in size
# Settings: HEK293T ELG1-luciferase reporter, luminescence, 16 h, DNA damage induced by 5-fluorouridine; activity change, negative = inhibition: at 46.1 µM (top of the series)
# In short: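 DMSO vehicle served as the neutral condition. Each well held 2,000 cells given 5-fluorouridine plus compound; after 16 hr at 37 °C/5% CO2, ONE-Glo was added and luciferase measured 30 min later.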
# On the % scale 0 is the no-effect control and ±100 the full control effect; potency means the concentration at half of the fitted maximal effect.
SMILES,Potency,"activity change, negative = inhibition"
Cc1ccc(C(=O)C(C(=O)/C=C/c2ccccc2)=C2SCCCS2)cc1,active: 18.4 µM,–
CC1=Nc2ccccc2/C1=C/c1sc(=N)n(-c2nccs2)c1O,"inconclusive: 29.1 µM [activator, single point]",–
O=S(=O)(NC1CCN(S(=O)(=O)c2c(F)cccc2F)CC1)c1ccc2c(c1)OCCO2,"inconclusive: 20.6 µM [inhibitor, single point]",–
N#CC1(NC(=O)CSc2nnc(-c3ccccc3F)n2N)CCCCC1,inactive,–
O=C1CN(C(=O)/C=C/c2ccc(Cl)cc2)c2ccccc2N1,inactive,–
O=C(CSc1nnc(NC(=O)c2c(F)cccc2F)s1)NCc1ccc(F)cc1,inactive,–
O=C(N/N=C/c1oc(O)c2ccccc12)c1ccccc1O,inactive,–
O=C(COC(=O)CCCNC(=O)c1ccc(Cl)cc1)Nc1ccc(Br)cc1,inactive,–
O=C(O)/C=C/c1cn(-c2ccccc2)nc1-c1cccc([N+](=O)[O-])c1,inactive,–
COc1ccc(CNC(=O)c2cc(=O)c3ccc(C)c(C)c3o2)cc1,"inconclusive: 23.1 µM [inhibitor, single point]",–
COc1ccc(-c2nn(-c3ccccc3)cc2CNC(C)Cn2cncn2)c(F)c1 (stereo unspecified),"inconclusive: 23.1 µM [inhibitor, single point]",–
Clc1ccc(OCCOCCOc2cccc3cccnc23)c(Br)c1,inactive,–
O=C(CN1C(=O)c2ccccc2C1=O)Nc1cccc2cccnc12,inactive,–
CCc1nnc(NC(=O)CSc2ncnc3c2cnn3-c2ccc(OC)cc2)s1,"inconclusive: 35.5 µM [activator, single point]",–
c1ccc(CC2CCN(Cc3nc(-c4ccccc4)no3)CC2)cc1,"inconclusive: 9.2 µM [activator, partial curve, poor fit]",–
CCOC(=O)C1(Cc2cccc(Cl)c2)CCCN(C(=O)CCNC(C)=O)C1 (stereo unspecified),inactive,–
Cc1nn(-c2ccccc2)c(Oc2ccc(F)cc2)c1/C=N/n1cnnc1,"inconclusive: 23.1 µM [inhibitor, partial curve]",–
Cc1ccc(-n2ncc(Br)c(Br)c2=O)cc1,"inconclusive: 29.1 µM [inhibitor, single point]",–
O=C(CCN1C(=O)c2ccccc2S1(=O)=O)Nc1cccc2ccccc12,inactive,–
COc1ccc([N+](=O)[O-])cc1NC(=O)C(C)OC(=O)/C=C/c1ccco1 (stereo unspecified),inactive,–
COc1ccc(-c2nc(CSCC(=O)NC3CCCC3)c(C)o2)cc1OC,active: 14.6 µM,–
CCCC(=O)n1nc(-c2ccc(C)cc2)nc1NCc1ccco1,"inconclusive: 20.6 µM [activator, partial curve]",–
COC(=O)CCC(=O)Nc1cccc2ccccc12,inactive,–

# Entries of single compounds, looked up by structure.
# `Clc1ccc(OCCOCCOc2cccc3cccnc23)c(Br)c1` is listed with Potency: inactive
# `O=S(=O)(NC1CCN(S(=O)(=O)c2c(F)cccc2F)CC1)c1ccc2c(c1)OCCO2` is listed with Potency: inconclusive: 20.6 µM [inhibitor, single point]

# Carrying on.

SMILES,Potency,"activity change, negative = inhibition"
CCOC(=O)c1sc2ncnc(Nc3cccc(C(=O)O)c3)c2c1C,"inconclusive: 32.6 µM [activator, partial curve, poor fit]",–
O=C(CN1C(=O)c2ccccc2C1=O)Nc1ccc(-c2nc3ccccc3o2)cc1,"inconclusive: 25.9 µM [activator, partial curve, poor fit]",–
CC1Cc2ccccc2N1C(=O)COC(=O)c1c2c(nc3ccccc13)CCCCC2 (stereo unspecified),active: 13 µM,–
COc1cc(-c2c(C#N)c(N)nc3c2c(C)nn3-c2ccc(C)c(C)c2)cc(OC)c1OC,"inconclusive: 10.3 µM [inhibitor, partial curve]",–
Cc1[nH]c2ccccc2c1/C=N/NC(=O)c1ccccc1,"inconclusive: 16.4 µM [activator, single point]",–
Cc1cc(C)c2c(CN3CCN(Cc4ccc5c(c4)OCO5)CC3)cc(=O)oc2c1,"inconclusive: 29.1 µM [inhibitor, single point]",–
COc1ccccc1NC(=O)Nc1nc2ccc(S(N)(=O)=O)cc2s1,"inconclusive: 5.8 µM [activator, single point]",–
O=C(CCCOc1ccccc1)Nc1nncs1,"inconclusive: 15.8 µM [activator, single point]",–
Cc1ccc(S(=O)(=O)NC(=O)Nc2nc(-c3ccc(F)c(F)c3)cs2)cc1,–,inconclusive: 32.3% [activator]
Cc1ccc(C)c(-c2cc(C(=O)Nc3cccnc3)c3ccccc3n2)c1,"inconclusive: 16.4 µM [inhibitor, partial curve]",–
Cc1sc2ncn(CC(=O)N3CCN(c4ccccn4)CC3)c(=O)c2c1S(=O)(=O)N1CCC(C)CC1,"inconclusive: 32.6 µM [inhibitor, partial curve, poor fit]",–
O=C(N/N=C/c1cccc(O)c1)c1ccc2c(c1)OCCO2,"inconclusive: 4.11 µM [activator, single point]",–
CCN(CC)c1ccc(/C=N/OCC(=O)N2CCCc3ccccc32)cc1,inactive,–
CCc1ccccc1NC(=S)N1N=CCC1c1ccccc1 (stereo unspecified),"inconclusive: 16.4 µM [activator, partial curve]",–
Clc1c(CSc2nc3ccccc3o2)nc2sccn12,"inconclusive: 5.01 µM [activator, partial curve]",–
Cc1cccc(/C(N)=N/OC(=O)c2ccncc2)c1,"inconclusive: 5.8 µM [activator, partial curve]",–
Cc1[nH]c2ccccc2c1C(c1ccccn1)N1CCC(C)CC1 (stereo unspecified),"inconclusive: 1.84 µM [inhibitor, partial curve, poor fit]",–
CCCSc1nc2c3c(sc2c(=O)[nH]1)CC(C)(CC)OC3 (stereo unspecified),inactive,–
Cc1ccc(S(=O)(=O)N(Cc2ccccc2)Cc2ccco2)cc1,inactive,–
O=C(Nc1cccc2ccccc12)/C(=C/c1cccc([N+](=O)[O-])c1)NC(=O)c1cccs1,"inconclusive: 5.17 µM [inhibitor, partial curve, poor fit]",–
CCc1ccc(Nc2n[n+](-c3ccccc3)c(-c3c(Cl)cccc3Cl)s2)cc1,inactive,–
O=C(NC12CC3CC(CC(C3)C1)C2)c1ccc(-c2cccc(Cl)c2)o1,"inconclusive: 2.31 µM [activator, full curve]",–
Cc1cccc(-c2cccc(NC(=O)C3CCCN(C(=O)c4cccnc4)C3)c2)c1 (stereo unspecified),"inconclusive: 13 µM [inhibitor, partial curve]",–

# From PubChem BioAssay AID504467 (National Center for Advancing Translational Sciences (NCATS), 2011)
